# Laboratory results reported in PubChem BioAssay AID1259415 (National Center for Advancing Translational Sciences (NCATS), 2018).
# Out of some 410,000 compounds screened, about 18,000 (4.4%) were called active. Inconclusive results, whose numbers are uncertain, are shown with a selection of clear calls. Cut-off read from the data, not from the text of the source: active = activity change below about -60%; inconclusive = no clear call, values can overlap the other calls; inactive = above about -39%.
# Assay: qHTS Assay for inhibitors of the human cytomegalovirus (HCMV)
# Details: HFF cells, HCMV-luciferase reporter, 72 h; at 57.5 µM; stronger effect = lower value
# How it was run: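 Screen run at 2 compound doses on HFFs infected with reporter HCMV, MOI 1 PFU/cell. Luciferase activity from cell lysates at 72 h post infection gave inhibition relative to buffer-only and Salinomycin wells.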
# % is set by controls: 0 for no effect and ±100 for the full control effect.
row,Structure (SMILES),"activity change, negative = inhibition"
1,CCN(CC)S(=O)(=O)c1ccc(NC(=O)C2c3ccccc3Oc3ccccc32)cc1,inconclusive: -47.1%
2,CC(=Nc1ccccc1)C1=C(O)C(Cc2cccc(F)c2)NC1=O (stereo unspecified),active: -72.4%
3,Cc1cccc(CC(=O)NCCS(=O)(=O)N2CCN(c3ccccc3)CC2)c1,inconclusive: -44.7%
4,Cc1ccc(NC(=S)N(Cc2ccco2)C2CCN(C(C)C)CC2)cc1,inactive: -27.9%
5,CC(C)N(C(=O)CN1CCC(c2nc3ccccc3[nH]2)CC1)C(C)C,inactive: -19.5%
6,COc1ccc(-c2cc(C)no2)cc1S(=O)(=O)NC1CCC(C)CC1 (stereo unspecified),inconclusive: 0%
7,CC(C(=O)N1CCc2ccccc2C1)N1C(=O)c2ccccc2C1=O (stereo unspecified),inconclusive: -40%
8,CCCCCCCCCCCCCCCCn1cc[n+](C)c1,active: -95.9%
9,Cn1cccc1/C=N\NC(=O)c1cncc(Br)c1,inconclusive: -50.2%
10,CCOc1ccc(S(=O)(=O)N2CCC(C(=O)N3CCCCCC3)CC2)cc1Cl,inconclusive: -53.9%
11,O=C(NCc1ccc(N2CCCC2=O)cc1)Nc1cccc2ccccc12,inconclusive: -58.6%
12,COCCN(C(=O)CSc1nnc(-c2ccccc2C)n1C)c1c(N)n(Cc2ccccc2)c(=O)[nH]c1=O,inconclusive: -44.3%
13,OC(CNCCc1ccccc1)COc1ccc(OCC(O)CNCCc2ccccc2)cc1 (stereo unspecified),active: -76.9%
14,CC(C)(C)OC(=O)NCc1ccc(CNC(=O)c2[nH]cnc2C(=O)NCC(=O)OCc2ccccc2)cc1,inconclusive: -50.4%
15,COc1ccc(OC)c(NC(=O)Cn2c(=O)n(Cc3nc(C)no3)c(=O)c3ccccc32)c1,inactive: -6.65%
16,CCOC(=O)c1c(C)[nH]c(C)c1C(=O)COC(=O)c1ccccc1O,inactive: -1.82%
17,CCOCc1c(C(=O)NC2=Nc3ccccc3NC(CC)=C2C(=O)OCC)oc2ccccc12,inconclusive: -44.5%
18,Cc1cc(NC(=O)CSCCO)no1,inconclusive: -44.2%
19,O=C(NCc1ccncc1)c1ccc(NS(=O)(=O)c2cccc([N+](=O)[O-])c2)cc1,inactive: -29%
20,CC1(C)NC(=O)N(CC(=O)N2CCN(c3ccc([N+](=O)[O-])cc3)CC2)C1=O,inactive: -2.42%
21,CCOP(=O)(OCC)C(NC(=O)Nc1ccc(C)c(Cl)c1)c1ccccc1 (stereo unspecified),inconclusive: -43.9%
22,Oc1ccc(Cc2ncc(C(F)(F)F)cc2Cl)cc1,inconclusive: -51.6%

row,Structure (SMILES),"activity change, negative = inhibition"
1,Cc1ccc(-c2nc(CS(=O)CC(=O)N3CCN(c4ccc(F)cc4)CC3)c(C)o2)cc1 (stereo unspecified),inconclusive: -44.5%
2,Cc1ccc2nc(-c3ccncc3)cc(C(=O)Nc3ccncc3)c2c1,inconclusive: -47.7%
3,CCOC(=O)N1CCC(N(CCN(C)C)C(=S)Nc2ccc(F)c(Cl)c2)CC1,inconclusive: -53.2%
4,COc1ccc(N=c2cc(-c3ccc(OC)cc3)oc3ccccc23)cc1,inconclusive: -53.3%
5,O=C(NNC(=O)c1ccccn1)c1ccc(OC(F)F)cc1,inconclusive: -56.4%
6,Cc1ccc(S(=O)(=O)N2CCCOC2CNC(=O)C(=O)NCCc2c[nH]c3ccccc23)cc1 (stereo unspecified),active: -63.6%
7,CCOc1ccc(CCNC(=O)CCC(=O)N2CCSc3ccccc32)cc1OCC,inactive: 15.6%
8,Cn1c(SCC(=O)N2CCN(c3ccccc3)CC2)nnc1-c1ccco1,inconclusive: -44.9%
9,CCc1ccc(C(=O)Nc2ccc(C)c(NS(C)(=O)=O)c2)cc1,inconclusive: -51.8%
10,CN(C)c1nc(-c2cccnc2)nc(-c2ccc(Cl)cc2)c1C#N,inconclusive: -54.4%
11,O=C(NC(c1ccc(F)cc1)c1cnccn1)C1CCN(CCOc2ccc(Cl)cc2Cl)CC1 (stereo unspecified),inconclusive: -42.5%
12,O=C(CSc1nc(-c2ccccc2)cc(C(F)(F)F)n1)NCc1ccco1,inactive: 14.3%
13,CCCCC(=O)Nc1c(C(=O)N2CCN(c3ccccc3)CC2)oc2ccccc12,inactive: -24%
14,O=c1c2c3c(sc2nc2n1CCCC2)CCCC3,inconclusive: -48.1%
15,Cc1cccc(Sc2ccc([N+](=O)[O-])cc2[N+](=O)[O-])n1,active: -72.1%
16,O=C1CN(C(=O)CSc2nc3ccccc3n2CCc2ccccc2)c2ccccc2N1,active: -60.2%
17,O=C1CC(c2ccc(Cl)cc2)c2cc3c(cc2N1)OCCO3 (stereo unspecified),inconclusive: -42.5%
18,CSc1cccc(NC(=O)CN(C)S(=O)(=O)c2cnc[nH]2)c1,inactive: -1.7%
19,CCc1ccccc1NC(=O)C(CC)Oc1ccccc1-c1nnc(-c2ccccc2)o1 (stereo unspecified),inactive: 14.2%
20,NS(=O)(=O)c1ccc(NC(=O)c2ccc(COc3ccccc3)o2)cc1,inconclusive: -57.5%
21,CCOc1ccc(CCNC(=O)c2cccc(-n3c(C)nc4cccnc43)c2C)cc1,inconclusive: 0%
22,Cc1cc(N2CCCCC2)nc(N2CCCCC2)n1,active: -61.4%

# Some of the entries so far, with tabs:
row	Structure (SMILES)	activity change, negative = inhibition
12	O=C(CSc1nc(-c2ccccc2)cc(C(F)(F)F)n1)NCc1ccco1	inactive: 14.3%
13	CCCCC(=O)Nc1c(C(=O)N2CCN(c3ccccc3)CC2)oc2ccccc12	inactive: -24%
14	O=c1c2c3c(sc2nc2n1CCCC2)CCCC3	inconclusive: -48.1%
15	Cc1cccc(Sc2ccc([N+](=O)[O-])cc2[N+](=O)[O-])n1	active: -72.1%

# Next part.

row,Structure (SMILES),"activity change, negative = inhibition"
1,CCOC(=O)C1(CCOc2ccccc2)CCN(Cc2cc(OC)ccc2OC)CC1,inconclusive: -41.5%
2,CSc1ccc(NC(=O)NCCCN2CCC(Cc3ccccc3)CC2)cc1,active: -63.3%
3,CC(=O)Nc1ccc(-c2nnc(SCC(=O)c3ccc4c(c3)Cc3ccccc3-4)n2C)cc1,inconclusive: -54.6%
4,CC(NC(N)=O)C(=O)OCC(=O)c1ccc(-c2ccccc2)cc1 (stereo unspecified),inactive: 18%
5,CC(C)(C)C(=O)Nc1ccc2nc(SCC(=O)N3CCc4ccccc43)sc2c1,inactive: -8.52%
6,CCOc1ccc(OCc2ccc(C(=O)N/N=C(\C)c3ccccn3)cc2)cc1,active: -85.4%
7,S=c1nccc(-c2ccc(Cl)cc2)[nH]1,inconclusive: -44.2%
8,c1ccc(OCCOc2ncnc3ccccc23)cc1,inactive: 68.4%
9,Cc1ccc(NC(=O)/C=N/OCC(=O)NCc2ccccc2Cl)cc1,inconclusive: 0%
10,Cc1ccc(Cn2ccc(NC(=O)c3cc(-c4ccc(Cl)cc4)on3)n2)cc1,inconclusive: -41.5%
11,COc1cccc(C2CC3(CC(C)(C)NC(=S)N3)Oc3cc(O)ccc32)c1 (stereo unspecified),inactive: -36.7%
12,Cc1ccc(-c2nnc(Nc3ccc(O)cc3)c3ccccc23)cc1S(=O)(=O)N1CCCCC1,active: -90.2%
13,CCCCCN(C(=O)CCC(=O)OCc1ccccc1C(F)(F)F)c1c(N)n(CCCC)c(=O)[nH]c1=O,inactive: 16.8%
14,COC(=O)C1=C(c2ccccc2OCc2ccccc2)C[C@@H]2CC[C@H]1N2C(=O)NC1CCN(Cc2ccccc2)CC1,inactive: -27.5%
15,S=c1[nH]nc(COc2ccccc2)n1/N=C/c1cccnc1,inactive: -23.9%
16,O=CN1CCN(c2ncnc3c2nnn3Cc2c(F)cccc2Cl)CC1,inconclusive: -53.3%
17,CCOC(=O)C1=C(COC(=O)CCNS(=O)(=O)c2ccc(NC(C)=O)cc2)NC(=O)NC1C (stereo unspecified),inactive: -9.57%
18,COc1ccc(C(=O)CN2CCN(c3ccc(Cl)cc3)CC2)cc1OC,inconclusive: -45.1%
19,Cc1csc(SCCn2c(N3CCOCC3)nc3c2c(=O)[nH]c(=O)n3C)n1,inconclusive: -46.4%
20,O=C(c1cc(S(=O)(=O)Nc2ccccc2F)c(Cl)cc1Cl)N1CCN(CCO)CC1,inconclusive: -40.2%
21,COc1ccc(CC(=O)Nc2nc3ccccc3s2)cc1S(=O)(=O)N1CCOCC1,inactive: -27%
22,COc1cccc(C(=O)NC2CC3CCCC(C2)N3CC(=O)Nc2ccccc2C(F)(F)F)c1 (stereo unspecified),inconclusive: -58.1%

row,Structure (SMILES),"activity change, negative = inhibition"
1,CN(C)C(=O)c1ccc(Nc2nnc(-c3ccc(O)cc3)c3ccccc23)cc1,inconclusive: -45.9%
2,O=C(NCc1cccnc1)c1cc(C2CCCCN2C(=O)CCCc2ccccc2)on1 (stereo unspecified),inactive: -6.02%
3,Cc1ccc(CN2CCNC(=O)C2CC(=O)NCc2cc(C)n(C)n2)cc1 (stereo unspecified),inactive: 25.9%
4,CCOC(=O)c1c(NC(NC(C)=O)C(Cl)(Cl)Cl)sc2c1CCCC2 (stereo unspecified),inconclusive: -43.2%
5,CCCc1cc(C(=O)NCc2ccco2)no1,inactive: 16.5%
6,Cc1ccc(C(=S)N2CCN(Cc3ccccc3)CC2)cc1,inactive: -30.5%
7,CCN(CC)S(=O)(=O)c1cc(NC(=O)c2cc([N+](=O)[O-])ccc2N2CCOCC2)ccc1C,inconclusive: -52.5%
8,CC1=C(CC(=O)c2ccccc2)C(=O)c2ccccc2C1=O,active: -98.6%
9,CCOC(=O)C1(CCCc2ccccc2)CCN(C(=O)CCn2cncn2)CC1,inconclusive: -42.8%
10,Cc1ccc(NC(=S)NC2CCN(Cc3ccccc3)CC2)c(C)c1,inconclusive: -47.1%
11,COc1ccccc1NC(=O)CSc1oc(-c2ccccc2)nc1S(=O)(=O)c1ccccc1,inconclusive: -46.9%
12,CC(=O)OC1CCC2C3CCc4cc(O)ccc4C3CCC12C (stereo unspecified),inconclusive: -54.3%
13,CS(=O)(=O)N(CCc1ccccc1)CC(=O)N1CCN(Cc2ccc3c(c2)OCO3)CC1,inconclusive: -58.3%
14,Cc1nnc(SCC(=O)NC2CC2)n1CC1CCCO1 (stereo unspecified),inconclusive: -44%
15,COc1ccc(C2C(C#N)=C(C)NC3=C2C(=O)c2ccccc23)cc1 (stereo unspecified),inconclusive: -51.8%
16,COc1nsnc1NS(=O)(=O)c1ccc(NC(=S)NC(=O)c2ccncc2)cc1,inconclusive: -46.8%
17,COc1ccc(C(=O)NC(=S)NCc2ccco2)cc1OC,inconclusive: -40.3%
18,CC(=O)c1cccc(Nc2ncnc3ccc(Br)cc23)c1,inconclusive: -41.4%
19,CCN1C(=O)c2ccccc2S(=O)c2ccc(C(=O)N3CCN(c4ccccc4OC)CC3)cc21 (stereo unspecified),inactive: 19.2%
20,O=C(COC(=O)c1ccc(O)cc1)Nc1cc(S(=O)(=O)N2CCOCC2)ccc1N1CCOCC1,inconclusive: 0%

# Entries shown so far that have bromine, in the order listed:
row,Structure (SMILES),"activity change, negative = inhibition"
9,Cn1cccc1/C=N\NC(=O)c1cncc(Br)c1,inconclusive: -50.2%
18,CC(=O)c1cccc(Nc2ncnc3ccc(Br)cc23)c1,inconclusive: -41.4%
